Hit rate of the full screen: of about 220,000 compounds, about 770 (0.35%) were called active. The shares of active, inactive and inconclusive entries below differ from those in the screen. Rule as the data show it: active = binding response below about 49% or above about 150%; inconclusive = no clear call, values can overlap the other calls; inactive = in between.
target: Guanine nucleotide-binding protein G(o) subunit alpha (Homo sapiens) (UniProt P09471); test: RGS7-Galphao binding modulators, primary screen, biochemical, multiplexed bead flow cytometry (AID 1439); details: at 10 µM, actives lie on both sides;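 also: fluorescent Galphao held in activated GDP-AlF4 state binding bead-coupled RGS7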

By UniProt entry, the sequences of proteins in these tests, tags left out.
UniProt P09471, whole entry, looked up: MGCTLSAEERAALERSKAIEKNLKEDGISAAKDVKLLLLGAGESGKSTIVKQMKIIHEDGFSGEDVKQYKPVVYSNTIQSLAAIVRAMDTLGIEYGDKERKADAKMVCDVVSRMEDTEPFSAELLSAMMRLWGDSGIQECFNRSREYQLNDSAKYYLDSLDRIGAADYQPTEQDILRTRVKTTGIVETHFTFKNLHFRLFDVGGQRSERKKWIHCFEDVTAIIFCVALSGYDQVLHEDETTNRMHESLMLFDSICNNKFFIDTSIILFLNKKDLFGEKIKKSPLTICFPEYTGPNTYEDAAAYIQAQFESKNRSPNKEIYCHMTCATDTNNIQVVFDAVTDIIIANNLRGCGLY

SMILES	binding response (% of control)
C=CCNC(=S)Nc1c(N)n(C)c(=O)n(C)c1=O	inconclusive: 59.6%
Cc1c(OC(C(=O)O)c2ccccc2)ccc2c(-c3ccccc3)cc(=O)oc12 (centres undefined)	inconclusive: 117%
O=C(CN1CCN(c2ccc(Cl)cc2[N+](=O)[O-])CC1)N1CCOCC1	inconclusive: 96.7%
O=S(=O)(NCCc1cn2ccccc2n1)c1ccc2c(c1)CCCC2	inactive: 95%
c1ccc(Oc2cc(-c3ccccc3)nc(-c3ccccc3)n2)cc1	active: 18.1%
COCCCN(Cc1ccco1)C(=O)Cn1ncc2c(=O)oc3ccc(C)cc3c21	inconclusive: 90.9%
Cn1cc([N+](=O)[O-])c(C(=O)N/N=C\c2c[nH]c3ccccc23)n1	inconclusive: 96%
CC1=CC(C)C(CN(CCC[N+](C)(C)C)C(=O)Nc2ccccc2)C(C)C1 (centres undefined)	inconclusive: 69.8%
CC1=NNC(=O)C1CCC(=O)N/N=C/c1ccc(Cl)cc1Cl (centres undefined)	inconclusive: 97.3%
O=C(Nc1ccc(S(=O)(=O)N2CCOCC2)cc1)c1ccc2ncsc2c1	inconclusive: 82.3%
C=CCOC(=O)C1=C[C@H](c2cn(C(C)=O)c3ccccc23)[C@@H](CCCO)[C@H](OCC)O1	inactive: 95.9%
C=CCNC(=O)c1ccc([N+](=O)[O-])c(Cl)c1	inconclusive: 109%
Cn1ccnc1C(=O)c1cc(SCC(=O)N2CCOCC2)nc2ccccc12	inconclusive: 119%
CC(=O)Nc1ccc(S(=O)(=O)Nc2nc(C)nc3sc4c(c23)CCC4)cc1	inconclusive: 101%
Cc1cc(C(=O)NNC(=O)c2ccc(C(F)(F)F)cc2)no1	inconclusive: 101%
O=C1CCC/C1=C/Nc1cccc(F)c1	inconclusive: 104%
S=c1[nH]nc(-c2ccccn2)n1/N=C/c1cccc2ccccc12	inactive: 94.6%
NNC(=O)c1cc2sccc2s1	inconclusive: 94.5%
O=C(Nc1nccs1)c1cncc(Br)c1	inconclusive: 139%
O=C(CN1CCN(c2ccccn2)CC1)Nc1cccc(S(=O)(=O)N2CCOCC2)c1	inconclusive: 117%
Cc1cccn2c(=O)c(/C=C(\C#N)S(=O)(=O)c3ccccc3)c(N3CCCCC3)nc12	inconclusive: 131%
COC(C[C@@H]1O[C@H]1[C@@H](O)COCc1ccccc1)OC	inconclusive: 103%
Cc1c(CC(=O)O)c(=O)oc2cc3oc4c(c3cc12)CCCC4	inconclusive: 101%

SMILES	binding response (% of control)
CN(c1ccccc1)S(=O)(=O)c1cccc(C(=O)NNC(=O)c2ccccc2)c1	inconclusive: 92.3%
CCC(O)(CC)C(=O)N/N=C/c1cc(Br)cc(Br)c1O	inconclusive: 124%
O=C(CCCn1nnc2ccccc2c1=O)N[C@@H](Cc1ccccc1)C(=O)O	inconclusive: 70.2%
Cc1onc(-c2ccc(Cl)cc2)c1-c1ccnn1S(=O)(=O)c1cccc(C(F)(F)F)c1	inconclusive: 103%
Cc1c(Cl)c(C(=O)N2CCCC2)nn1C	inactive: 103%
CCNC(=S)N1CCN(CCN2C(=O)c3cccc4cccc(c34)C2=O)CC1	inconclusive: 82.6%
C/C(=N\N1CCN(Cc2ccccc2Cl)CC1)c1ccc(F)cc1	inconclusive: 113%
CC(c1ccccc1)C(Cc1nc2ccccc2[nH]1)c1nc2ccccc2[nH]1 (centres undefined)	inconclusive: 85.8%
CCOc1cc(NC(=O)c2cnccn2)c(OCC)cc1NC(=O)c1cccc(F)c1	inactive: 94.4%
Oc1ccccc1Nc1ccccn1	inconclusive: 135%
CCCCCCNc1nc(Cl)nc(NC(C)(C)CO)n1	inconclusive: 57.3%
Cc1onc(-c2ccccc2Cl)c1C(=O)NCc1nc(-c2ccc(C(F)(F)F)cc2)no1	inconclusive: 116%
CCOP(=O)(OCC)C(Nc1cccc([N+](=O)[O-])c1)c1ccc(N(C)C)cc1 (centres undefined)	inconclusive: 60.9%
O=C(Nc1ccc(O)c(C(=O)O)c1)Oc1ccccc1	inconclusive: 107%
O=C(CN1CC[n+]2c(-c3ccccc3)csc21)c1ccc(Br)cc1	inconclusive: 94.9%
COc1ccc(/C=N/NC(=O)c2cc(O)c(O)c(O)c2)cc1Cn1cc([N+](=O)[O-])cn1	inconclusive: 82.5%
CCOC(=O)Cc1nnc(NC(=O)CSc2nnc3c(n2)[nH]c2ccccc23)s1	inactive: 104%
CC1(C)CC(=O)C2=C(C1)OC(=O)CC2c1cccs1 (centres undefined)	inconclusive: 92.5%
CC(=O)CCC(=O)OCC(=O)Nc1ccc(SC(F)F)cc1	inconclusive: 99.8%
O=C(c1cccc([N+](=O)[O-])c1)N1CCN(c2n[nH]c(=O)[nH]c2=O)CC1	inconclusive: 111%
Cc1cccc(NC(=O)c2nc[nH]c2C(=O)N[C@@H](C)C(=O)OC(C)(C)C)c1	inconclusive: 108%
OCCC1CN(Cc2cccn2-c2cccnc2)CCN1C1CCCC1 (centres undefined)	inconclusive: 108%
CN(CCc1ccccn1)C(=O)Nc1cccc(Cl)c1	inconclusive: 139%

Part of the list above in order of length of the SMILES, rising.
SMILES	binding response (% of control)
CCC(O)(CC)C(=O)N/N=C/c1cc(Br)cc(Br)c1O	inconclusive: 124%
CN(c1ccccc1)S(=O)(=O)c1cccc(C(=O)NNC(=O)c2ccccc2)c1	inconclusive: 92.3%
Cc1onc(-c2ccccc2Cl)c1C(=O)NCc1nc(-c2ccc(C(F)(F)F)cc2)no1	inconclusive: 116%
O=C(c1cccc([N+](=O)[O-])c1)N1CCN(c2n[nH]c(=O)[nH]c2=O)CC1	inconclusive: 111%

Reformatted as labelled records: part of the list above
Cc1onc(-c2ccc(Cl)cc2)c1-c1ccnn1S(=O)(=O)c1cccc(C(F)(F)F)c1
  binding response (% of control): inconclusive: 103%
O=C(c1cccc([N+](=O)[O-])c1)N1CCN(c2n[nH]c(=O)[nH]c2=O)CC1
  binding response (% of control): inconclusive: 111%

Following part.

SMILES	binding response (% of control)
Cc1cccc(C(=O)NC(NCc2ccco2)C(Cl)(Cl)Cl)c1 (centres undefined)	active: 44.1%
CCNC(=O)Oc1ccc[nH]c1=O	inconclusive: 60.5%
O=c1oc2cc(S(=O)(=O)NCCCO)ccc2c2ccc(S(=O)(=O)NCCCO)cc12	inconclusive: 83.7%
O=C(OCCC1Oc2cccnc2NC1=O)c1ccc(Cl)cc1 (centres undefined)	inconclusive: 104%
S=c1[nH]nc(CN2CCCCC2)n1Cc1ccccc1	inconclusive: 82%
Cc1ccc(OCC(O)CNCc2ccccc2)cc1C (centres undefined)	inconclusive: 59.1%
COc1ccc2c(c1)CCc1c-2nc2ccccc2c1N1CCOCC1	inconclusive: 96.2%
C/C(=N\N1CCN(Cc2ccccc2Cl)CC1)c1ccc([N+](=O)[O-])cc1	inconclusive: 98.5%
Cc1cccn2c(CNC3CCCc4ccccc43)c(C(=O)N3CCCCC3)nc12 (centres undefined)	inactive: 99.3%
O=C(c1cccc(Cl)c1)N1CCCC(C(=O)N2CCCCCC2)C1 (centres undefined)	inactive: 99.5%
CS(=O)(=O)Oc1ccc2c(c1)O/C(=C\C=C\c1ccccc1)C2=O	inconclusive: 113%
COC(=O)c1ccc2c(=O)[nH]c(CSc3nnc(C(F)(F)F)n3C)nc2c1	inactive: 90.2%
Cc1cccc(C(=O)c2ccccc2C(=O)O)c1	inconclusive: 162%
O=C(Cn1nc(Cc2cccnc2)c2ccccc2c1=O)Nc1ccccc1F	inconclusive: 95%
O=C(NC1C/C(=N/O)c2cc3c(cc21)OCO3)C(F)(F)F (centres undefined)	inconclusive: 102%
CCC(C)n1c(SCc2ccc([N+](=O)[O-])cc2)nc2ccsc2c1=O (centres undefined)	inactive: 104%
Cc1cc(NC(=O)CSc2nc(N)c(NC(=O)c3ccco3)c(=O)[nH]2)no1	inconclusive: -41.1%
COC(=O)c1sccc1NC(=O)c1cccs1	inconclusive: 15.6%
CCOC(=O)C1=C(C)N=C2SC(C(=O)OC)=CC(=O)N2C1c1ccc(OC)cc1 (centres undefined)	inactive: 97.7%
CCCCCC(=O)Cc1cc(O)cc2c1C(=O)Oc1cc(O)c(C(=O)O)c(CCCCC)c1O2	inconclusive: 170%
CC(=O)c1ccc(-n2c(SCC(=O)c3c[nH]c4ccccc34)nc3ccccc3c2=O)cc1	active: 184% [activator]
O=c1ccc2ccc(Oc3ccc([N+](=O)[O-])cc3[N+](=O)[O-])cc2o1	inactive: 99.7%
COc1ccc(NC(=O)CCCC(=O)O)cc1Cl	inconclusive: 104%

SMILES	binding response (% of control)
CCSc1nnc(NC(=O)c2cc(-c3ccccc3O)n[nH]2)s1	inconclusive: 95.9%
Cc1cc(C)nc(NS(=O)(=O)c2ccc(NC(=O)c3ccc4c(c3)OCCO4)cc2)n1	inactive: 99.1%
CN(C)CC(CCCCC(CN(C)C)C(=O)c1ccccc1)C(=O)c1ccccc1 (centres undefined)	inconclusive: -12%
Cc1ccc(S(=O)(=O)N(C)CC(=O)OCC(=O)Nc2ccccc2)cc1	inconclusive: 128%
Cc1ccc(/C=N/N2CCN(c3ccccn3)CC2)o1	inconclusive: 108%
Nc1ccccc1Nc1cccc(C(F)(F)F)c1	inconclusive: 85.3%
COc1ccc(OC)c(N/C(=N/c2nc(C)cc(C)n2)NC(C)=O)c1	inconclusive: 90%
CN(C)S(=O)(=O)c1cccc(NC(=S)NN=C(Cc2ccccc2)Cc2ccccc2)c1	inactive: 51.2%
Cc1cc(C)c(NC(=O)c2cc3c(nc4sccn43)s2)c(C)c1	inactive: 101%
COc1ccc(/C=C/C(=O)NC(=S)NNC(=O)c2cc(OC)c(OC)c(OC)c2)cc1OC	inconclusive: 100%
CCOC(=O)N1CCN(CC(=O)Nc2c(C(=O)OC)[nH]c3ccccc23)CC1	active: 175% [activator]
COc1cccc(-c2nnc(N)o2)c1	inconclusive: 163%
Cc1ccc(C(=O)O/N=C(\N)Cc2ccc([N+](=O)[O-])cc2)c(Cl)c1	inconclusive: 305%
COc1ccc(CCNC(=S)NC(=O)c2cc(OC)c(OC)c(OC)c2)cc1OC	inconclusive: 116%
CCCCNC(=O)COC(=O)c1ccccc1F	inconclusive: 68.7%
Oc1ccc(/C=N/NC(=S)Nc2cccnc2)c(O)c1O	inconclusive: 67.7%
O=C(CCn1c(=S)oc2ccccc21)N1CCN(c2ccc(F)cc2)CC1	inconclusive: 92.3%
CCN(CC)S(=O)(=O)c1ccc(OC)c(NC(=O)c2cn(CC)c3nc(C)ccc3c2=O)c1	inconclusive: 101%
CC(=O)Nc1cccc(-n2nnc(SCC(=O)N(C)c3ccccc3)n2)c1	inconclusive: 97.1%
COC(=O)c1sccc1NC(=O)c1ccc(OC)c([N+](=O)[O-])c1	inconclusive: 66.4%

Source: PubChem BioAssay AID1439 (NMMLSC, 2008)
